According to PubChem BioAssay AID188 (DTP/NCI, 2004):
Shown are survivors of the treated group in tumour-free mice. Counts of survivors are from the toxicity check (mostly the fifth day) where no day follows; animals may have died later. Schedule codes are those of the source, taken here to give the interval after Q, in days (D) or hours (H), and the number of doses after X. Starred links: 1 amine or outer side, 2 acyl side, 3 side chain; linkers in the order of their positions; H or OH if unused. Positions of bridges follow the written chain, without caps; N, C: chain ends. Non-standard residues stand in square brackets, D forms with d. Residues, ends and D or L forms follow the SMILES beside them. Chains are numbered I, II in the order given. Actinocin(9to1) = Cc1c2oc3c(C)ccc(C(=O)[*:1])c3nc-2c(C(=O)[*:2])c(N)c1=O; aThr = C[C@H](O)[C@H](N)C(=O)O; NMeV = CN[C@H](C(=O)O)C(C)C; Sar = CNCC(=O)O

Test system: CD2F1 mice, nontumored, toxicity/survival
Assay: NCI In Vivo Anticancer Drug Screen. Data for tumor model Nontumored Animals (Toxicity Test) in CD2F1 (CDF1) mice

**Q.** What does the source list for `OC(C1CO1)C(O)C1CO1` (stereo unspecified)?
**A.** survivor count (dose: 1.0 mg/kg/injection, schedule: Q01DX009 (ip), vehicle: saline): 8 of 8; survivor count (dose: 1.0 mg/kg/injection, schedule: Q04DX003 (ip), vehicle: saline): 8 of 8; survivor count (dose: 1.4 mg/kg/injection, schedule: Q01DX009 (ip), vehicle: saline): 8 of 8; survivor count (dose: 1.4 mg/kg/injection, schedule: Q04DX003 (ip), vehicle: saline): 8 of 8; survivor count (dose: 2.0 mg/kg/injection, schedule: Q01DX009 (ip), vehicle: saline): 8 of 8; survivor count (dose: 2.0 mg/kg/injection, schedule: Q04DX003 (ip), vehicle: saline): 8 of 8; survivor count (dose: 3.0 mg/kg/injection, schedule: Q01DX009 (ip), vehicle: saline): 8 of 8; survivor count (dose: 3.0 mg/kg/injection, schedule: Q04DX003 (ip), vehicle: saline): 8 of 8; survivor count (dose: 4.6 mg/kg/injection, schedule: Q01DX009 (ip), vehicle: saline): 8 of 8; survivor count (dose: 4.6 mg/kg/injection, schedule: Q04DX003 (ip), vehicle: saline): 8 of 8; survivor count (dose: 7.0 mg/kg/injection, schedule: Q01DX009 (ip), vehicle: saline): 8 of 8; survivor count (dose: 7.0 mg/kg/injection, schedule: Q04DX003 (ip), vehicle: saline): 8 of 8; survivor count (dose: 10.0 mg/kg/injection, schedule: Q01DX001 (ip), vehicle: saline): 10 of 10; survivor count (dose: 10.6 mg/kg/injection, schedule: Q01DX009 (ip), vehicle: saline): 8 of 8; survivor count (dose: 10.6 mg/kg/injection, schedule: Q04DX003 (ip), vehicle: saline): 8 of 8; survivor count (dose: 12.5 mg/kg/injection, schedule: Q01DX001 (ip), vehicle: saline): 10 of 10; survivor count (dose: 15.0 mg/kg/injection, schedule: Q01DX001 (ip), vehicle: saline): 10 of 10; survivor count (dose: 16.0 mg/kg/injection, schedule: Q01DX009 (ip), vehicle: saline): 8 of 8; survivor count (dose: 16.0 mg/kg/injection, schedule: Q04DX003 (ip), vehicle: saline): 8 of 8

**Q.** For `O=C(O)c1ccc(C(=O)O)c(C(=O)O)c1.[NH-]C1CCCCC1[NH-].[Pt+2]`, which survivor count (dose: 50.0 mg/kg/injection, schedule: Q01DX001 (ip), vehicle: sodium bicarbonate) is on record?
**A.** 9 of 10

**Q.** What about the survivor count (dose: 55.0 mg/kg/injection, schedule: Q01DX001 (ip), vehicle: sodium bicarbonate) of the same compound?
**A.** 10 of 10

**Q.** And the survivor count (dose: 60.0 mg/kg/injection, schedule: Q01DX001 (ip), vehicle: sodium bicarbonate)?
**A.** 8 of 10

**Q.** And the survivor count (dose: 65.0 mg/kg/injection, schedule: Q01DX001 (ip), vehicle: sodium bicarbonate)?
**A.** 7 of 10

**Q.** And the survivor count (dose: 70.0 mg/kg/injection, schedule: Q01DX001 (ip), vehicle: sodium bicarbonate)?
**A.** 2 of 10

**Q.** And the survivor count (dose: 75.0 mg/kg/injection, schedule: Q01DX001 (ip), vehicle: sodium bicarbonate)?
**A.** 5 of 10

**Q.** With `Cc1c2oc3c(C)ccc(C(=O)N[C@@H]4C(=O)N[C@H](C(C)C)C(=O)N5CCC[C@H]5C(=O)N(C)CC(=O)N(C)[C@@H](C(C)C)C(=O)O[C@H]4C)c3nc-2c(C(=O)N[C@@H]2C(=O)N[C@H](C(C)C)C(=O)N3CCC[C@H]3C(=O)N(C)CC(=O)N(C)[C@@H](C(C)C)C(=O)O[C@H]2C)c(N)c1=O` (I: [aThr][dV]P[Sar][NMeV] / II: [aThr][dV]P[Sar][NMeV]; ester I:1-I:C, II:1-II:C; linker I:N-II:N via Actinocin(9to1)) as the compound, how does the survivor count (dose: 0.12 mg/kg/injection, schedule: Q04DX003 (ip), vehicle: saline) read?
**A.** 4 of 4

**Q.** And the survivor count (dose: 0.2 mg/kg/injection, schedule: Q04DX003 (ip), vehicle: saline)?
**A.** 4 of 4

**Q.** And the survivor count (dose: 0.33 mg/kg/injection, schedule: Q04DX003 (ip), vehicle: saline)?
**A.** 4 of 4

**Q.** How did the survivor count (dose: 13.0 mg/kg/injection, schedule: Q04DX003 (ip), vehicle: clinical formulation) turn out when `CCCCC(=O)OCC(=O)[C@]1(O)Cc2c(O)c3c(c(O)c2[C@@H](OC2CC(NC(=O)C(F)(F)F)C(O)C(C)O2)C1)C(=O)c1c(OC)cccc1C3=O` (stereo partly specified) was run?
**A.** 5 of 5

**Q.** What about the survivor count (dose: 13.0 mg/kg/injection, schedule: Q10HX004 (ip), vehicle: other) of the same compound?
**A.** 5 of 5

**Q.** What about the survivor count (dose: 21.6 mg/kg/injection, schedule: Q04DX003 (ip), vehicle: clinical formulation) of the same compound?
**A.** 5 of 5

**Q.** What about the survivor count (dose: 21.6 mg/kg/injection, schedule: Q10HX004 (ip), vehicle: other) of the same compound?
**A.** 5 of 5

**Q.** What about the survivor count (dose: 36.0 mg/kg/injection, schedule: Q04DX003 (ip), vehicle: clinical formulation) of the same compound?
**A.** 5 of 5

**Q.** And the survivor count (dose: 36.0 mg/kg/injection, schedule: Q10HX004 (ip), vehicle: other)?
**A.** 5 of 5

**Q.** And the survivor count (dose: 60.0 mg/kg/injection, schedule: Q04DX003 (ip), vehicle: clinical formulation)?
**A.** 5 of 5

**Q.** And the survivor count (dose: 60.0 mg/kg/injection, schedule: Q10HX004 (ip), vehicle: other)?
**A.** 5 of 5

**Q.** And the survivor count (dose: 100.0 mg/kg/injection, schedule: Q04DX003 (ip), vehicle: clinical formulation)?
**A.** 5 of 5

**Q.** What about the survivor count (dose: 100.0 mg/kg/injection, schedule: Q10HX004 (ip), vehicle: other) of the same compound?
**A.** 5 of 5

**Q.** What does the source list for `CC(=O)N(C(C)=O)c1nc(Br)c2ccccc2c1-c1ccc([N+](=O)[O-])cc1`?
**A.** survivor count (dose: 1.0 mg/kg/injection, schedule: Q01DX001 (ip), vehicle: DMSO): 2 of 2; survivor count (dose: 10.0 mg/kg/injection, schedule: Q01DX001 (ip), vehicle: DMSO): 2 of 2; survivor count (dose: 100.0 mg/kg/injection, schedule: Q01DX001 (ip), vehicle: DMSO): 2 of 2
